{
  "source": "paper PMC5415599",
  "about": "(Frontiers in Microbiology, 2017)",
  "test": "Fmoc solid-phase peptide synthesis; Fmoc-Rink amide MBHA resin",
  "conditions": "whole synthesis, analytical HPLC",
  "data": [
    {"substance": "INWKKWWQVFYTVV-NH2", "values": [
      {"measurement": "final HPLC purity", "value": 100, "unit": "%"}
    ]}
  ]
}
